Results deposited as PubChem BioAssay AID1224826 (NIAID, 2016).
Screen: 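Regulators of Tlr4 signalling leading to Tnf-alpha expression in macrophages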 (primary screen). Cells: RAW264.7 G9 macrophages from mouse bearing reporters for p65 (GFP) and the Tnf promoter (mCherry). Knock-down reagent: siRNA pool against mouse genes, 100 nM. Timing: 16 h of LPS stimulation, after 2 days of siRNA transfection. Conditions: bacterial lipopolysaccharide (Salmonella minnesota R595), 10 ng/ml. Detection: 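Imaged Tnf reporter mCherry in nuclei, minus background, normalised per plate to the median and expressed as robust z-scores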. Reading the numbers: Tnf reporter robust z-score: higher = stronger Tnf promoter reporter signal after LPS. Hit rule: 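Called active when robust z-score is at most -1.3, matching the median of the Tlr4 knock-down control, or over 3; control wells and wells with under 50 cells never active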. Calls: active = Tnf reporter clearly lowered or raised; inactive = no clear change in Tnf reporter.
Shown is one part, drawn at random, of about 17,000 reagents. About 1,110 of all reagents (6.6%) count as active. 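Active means lowered or raised reporter signal; replicate intensities are raw and not normalised per plate.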 Further read-outs or replicates are left out here.

target gene,PubChem SID,Tnf reporter robust z-score,fewer than 50 cells in well,Outcome
Or8k38,SID315480247,-0.47,enough cells in well,inactive
St8sia4,SID315469247,-1.78,enough cells in well,active
Hadh,SID315467137,,fewer than 50 cells per well; well left out of calls,inactive
Rbm15b,SID315476785,,fewer than 50 cells per well; well left out of calls,inactive
Zfhx4,SID315475744,-1.15,enough cells in well,inactive
Klhl6,SID315479460,-0.51,enough cells in well,inactive
Slc22a4,SID315470751,0.34,enough cells in well,inactive
Zfp276,SID315471722,-1.29,enough cells in well,inactive
Qpctl,SID315472980,1.27,enough cells in well,inactive
Kcnc1,SID315467569,0.62,enough cells in well,inactive
Kcnc1,SID315481304,0.35,enough cells in well,inactive
Zmynd8,SID315478673,-1.08,enough cells in well,inactive
Anapc1,SID315467867,-0.15,enough cells in well,inactive
Stk33,SID315477093,0.19,enough cells in well,inactive
Pate6,SID315473436,-1.31,enough cells in well,active
She,SID315477867,1.47,enough cells in well,inactive
Kif3b,SID315467622,-0.67,enough cells in well,inactive
Hp1bp3,SID315467284,-0.98,enough cells in well,inactive
Vamp5,SID315471095,0.41,enough cells in well,inactive
Vamp5,SID315471096,-0.29,enough cells in well,inactive
Or1r1,SID315480357,-1.94,enough cells in well,active
Pard6a,SID315471583,8.31,enough cells in well,active
Cpb1,SID315475364,-0.69,enough cells in well,inactive
Spmip5,SID315473072,-0.22,enough cells in well,inactive
Or5w13,SID315480307,0.29,enough cells in well,inactive
Zfp612,SID315479190,0.21,enough cells in well,inactive
Herc2,SID315467179,0.83,enough cells in well,inactive
Mbd2,SID315467847,-1.67,enough cells in well,active
Ppp4c,SID315471521,0.75,enough cells in well,inactive
Tmem229b,SID315480785,0.54,enough cells in well,inactive
Ctnnbl1,SID315472559,0.91,enough cells in well,inactive
Snx5,SID315473744,0.02,enough cells in well,inactive
Slc35a2,SID315469925,,fewer than 50 cells per well; well left out of calls,inactive
Mtbp,SID315476513,2,enough cells in well,inactive
Pfdn6,SID315467109,1.9,enough cells in well,inactive
Slc22a20,SID315481773,-0.93,enough cells in well,inactive
Mmp12,SID315467940,0.02,enough cells in well,inactive
Elmo1,SID315477136,-0.65,enough cells in well,inactive
S100g,SID315465727,-0.36,enough cells in well,inactive
Capn1,SID315465744,0.15,enough cells in well,inactive
Hoxc8,SID315467272,-1.01,enough cells in well,inactive
Poc5,SID315473043,0.45,enough cells in well,inactive
Ppil3,SID315473994,0.04,enough cells in well,inactive
Syt4,SID315469561,2.41,enough cells in well,inactive
Il23r,SID315477607,0.52,enough cells in well,inactive
Tcf19,SID315476563,-0.75,enough cells in well,inactive
Havcr1,SID315477355,-0.8,enough cells in well,inactive
Mbtps1,SID315471547,-0.19,enough cells in well,inactive
Adamts18,SID315477564,-0.3,enough cells in well,inactive
Hnmt,SID315477116,1.11,enough cells in well,inactive
Cdc42ep5,SID315471914,-0.24,enough cells in well,inactive
Or5m3b,SID315480237,0.55,enough cells in well,inactive
Fbxo8,SID315470822,0.75,enough cells in well,inactive
Mcts2,SID315472422,,fewer than 50 cells per well; well left out of calls,inactive
Abcc2,SID315466023,0.08,enough cells in well,inactive
Ppm1l,SID315479593,-2.06,enough cells in well,active
Sycn,SID315473526,6.07,enough cells in well,active
Obox5,SID315479901,1.7,enough cells in well,inactive
Kalrn,SID315479465,-1.1,enough cells in well,inactive
Or52z1,SID315468330,0.01,enough cells in well,inactive
Bbs9,SID315481179,2.57,enough cells in well,inactive
Arr3,SID315477207,1.39,enough cells in well,inactive
Cndp2,SID315472183,0.08,enough cells in well,inactive
Rgs14,SID315470903,-0.61,enough cells in well,inactive
Bcl6,SID315465619,0.16,enough cells in well,inactive
Abcb9,SID315471460,0.62,enough cells in well,inactive
Or5p58,SID315480378,1.89,enough cells in well,inactive
9230106D20Rik (retired record),SID315481445,,fewer than 50 cells per well; well left out of calls,inactive
Scn7a,SID315469119,0.1,enough cells in well,inactive
Galnt1,SID315466818,-0.44,enough cells in well,inactive
Lyplal1,SID315478525,-0.22,enough cells in well,inactive
Cimip2b,SID315481552,3.34,enough cells in well,active
Rock1,SID315468993,0.84,enough cells in well,inactive
Or8b56,SID315480457,6.66,enough cells in well,active
Pdcd1,SID315468425,-0.4,enough cells in well,inactive

Active calls, of those listed so far:
target gene,PubChem SID,Tnf reporter robust z-score,fewer than 50 cells in well,Outcome
St8sia4,SID315469247,-1.78,enough cells in well,active
Pate6,SID315473436,-1.31,enough cells in well,active
Or1r1,SID315480357,-1.94,enough cells in well,active
Pard6a,SID315471583,8.31,enough cells in well,active
Mbd2,SID315467847,-1.67,enough cells in well,active
Ppm1l,SID315479593,-2.06,enough cells in well,active
Sycn,SID315473526,6.07,enough cells in well,active
Cimip2b,SID315481552,3.34,enough cells in well,active
Or8b56,SID315480457,6.66,enough cells in well,active
